Results reported in doi:10.1101/2022.12.09.519731 (bioRxiv, 2022).
Like-named read-outs stand apart in the source and are kept apart here. No constants are given. Whether binding was seen depends on the method and setting. For part of these data: A result given as binding can be weak or reduced; the word gives no strength. Where a sequence is shown, tags or fusion partners need not be part of it. One block for each molecule: values may come before it.

How the values were obtained:
Test in all cases: pull-down
[1] = biological target: T1, His6-MglB (Myxococcus xanthus) (UniProt Q1DB03)
T1 sequence: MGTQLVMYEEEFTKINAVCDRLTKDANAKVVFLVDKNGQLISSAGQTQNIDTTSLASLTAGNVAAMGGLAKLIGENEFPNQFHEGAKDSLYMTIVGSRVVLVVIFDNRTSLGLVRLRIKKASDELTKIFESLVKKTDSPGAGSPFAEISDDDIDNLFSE

[2] = biological target: T1, His6-MglB (Myxococcus xanthus); remark: listed apart in the source
[3] = biological target: T2, His6-MglB^KRK (Myxococcus xanthus) (UniProt Q1DB03)
T2 sequence: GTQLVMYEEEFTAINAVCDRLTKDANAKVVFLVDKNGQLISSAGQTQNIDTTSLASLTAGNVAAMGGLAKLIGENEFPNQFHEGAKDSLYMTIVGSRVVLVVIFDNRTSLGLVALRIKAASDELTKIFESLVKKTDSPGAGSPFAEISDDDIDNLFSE

[4] = biological target: Strep-MglC (Myxococcus xanthus)
[5] = biological target: Strep-MglC (Myxococcus xanthus); remark: listed apart in the source

binding [1]: binds
binding [2]: binds
binding [3]: no binding (tested: 10µM)
Molecule: Strep-MglC (Myxococcus xanthus)

binding [4]: binds
binding [5]: binds
B1: His6-MglB (natural protein, Myxococcus xanthus)
chain: T1 sequence

binding [4]: no binding (tested: 10µM)
B2: MglA-His6 (protein, UniProt Q1DB04 1-195)
chain: MSFINYSSREINCKIVYYGPGLCGKTTNLQYIYNKTAAETKGKLISLSTETDRTLFFDFLPLSLGEIRGFKTRFHLYTVPGQVFYDASRKLILKGVDGVVFVADSQIERMEANMESLENLRINLAEQGYDLNKIPYVIQYNKRDLPNAVTVEEMRKALNHRNIPEYQAVAPTGVGVFDTLKAVAKLVLTELKKGG
